Measured values: the supplement of paper PMC10849652
The other results are listed elsewhere or left out.

The chains behind the UniProt entries cited, without tags or fusion partners. Where a name states a change or a piece, a line headed by the entry shows the natural chain unless it says otherwise.
UniProt Q9NVT9: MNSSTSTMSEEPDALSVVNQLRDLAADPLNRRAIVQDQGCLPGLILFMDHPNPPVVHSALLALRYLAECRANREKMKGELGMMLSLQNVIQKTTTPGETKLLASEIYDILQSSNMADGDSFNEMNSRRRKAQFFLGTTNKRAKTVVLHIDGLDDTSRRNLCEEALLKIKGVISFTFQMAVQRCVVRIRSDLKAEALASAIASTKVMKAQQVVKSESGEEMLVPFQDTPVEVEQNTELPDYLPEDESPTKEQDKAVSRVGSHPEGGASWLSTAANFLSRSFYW
UniProt Q5TC12: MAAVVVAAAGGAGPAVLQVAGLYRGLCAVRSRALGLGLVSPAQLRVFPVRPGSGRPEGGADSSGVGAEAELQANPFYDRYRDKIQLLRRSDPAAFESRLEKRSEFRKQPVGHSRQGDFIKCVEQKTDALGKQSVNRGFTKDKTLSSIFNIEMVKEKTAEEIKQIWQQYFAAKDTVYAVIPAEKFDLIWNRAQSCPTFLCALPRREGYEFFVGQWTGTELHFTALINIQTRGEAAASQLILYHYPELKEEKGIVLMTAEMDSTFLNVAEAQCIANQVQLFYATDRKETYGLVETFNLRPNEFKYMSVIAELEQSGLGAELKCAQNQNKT
UniProt Q96KC2: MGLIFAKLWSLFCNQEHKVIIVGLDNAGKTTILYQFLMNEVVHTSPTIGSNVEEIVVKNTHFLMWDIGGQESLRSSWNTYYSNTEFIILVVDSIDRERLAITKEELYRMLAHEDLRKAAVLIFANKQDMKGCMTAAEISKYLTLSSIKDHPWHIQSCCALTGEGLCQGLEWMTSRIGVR

Experiments:
Test in all cases: log2 fold change, soluble protein after heating vs DMSO (PISA); higher = thermal stabilisation; K562 cells, 10 uM, 30 min; active = over 0.2 and 3.5 SD of the protein, either way, in both replicates (recomputed)
[1] = compound: C1=CC=C(C=C1)[C@H](COC2=CC3=C(C=C2)NC(=O)N3)NC(=O)C4=CC=CN(C4=O)CC5=CC(=C(C=C5)F)F
Method in brief: (§1)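 Soluble protein was defined as the supernatant after 21,000xg for 90 min. It came from K562 cells at 2×10^6 cells/mL given 10 μM compound for 30 min, heated in aliquots for 3 min across 48°C-58°C, pooled, and extracted in PBS with 0.5% NP-40 at 4°C, and was quantified by TMTpro 16plex LC-MS/MS with equalised channel sums. Thermal stability against control samples, from duplicates, is reported as log2 fold change.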

[2] = compound: CC1=C(SC2=C1C(=N[C@H](C3=NN=C(N32)C)CC(=O)N)C4=CC=C(C=C4)Cl)C
Method in brief: as §1

[3] = compound: CC1=C2C(=CC=C1)N=C(N(C2=O)C3=CC=CC=C3C)CN4C=NC5=C(N=CN=C54)N
Method in brief: as §1

[4] = compound: Cc1sc2c(c1C)C(c1ccc(Cl)cc1)=N[C@@H](CC(=O)OC(C)(C)C)c1nnc(C)n1-2
Method in brief: as §1

[5] = compound: c1ccc([C@@H]2C[C@H]2NC2CCNCC2)cc1
Method in brief: as §1

Measured: log2 fold change

ARMC1 (UniProt Q9NVT9)
inactive: [1] -0.065 | [2] 0.029 | [3] 0.012 | [4] -0.01 | [5] 0.001

ATPAF1 (UniProt Q5TC12)
inactive: [1] 0.034 | [2] -0.038 | [3] -0.016 | [4] -0.011 | [5] 0.057

ARL5B (UniProt Q96KC2)
inactive: [1] -0.087 | [2] 0.107 | [3] 0.216 | [4] 0.016 | [5] 0.056

ATP1A3 isoform 3 (UniProt P13637)
inactive: [1] 0 | [2] -0.018 | [3] -0.002 | [4] 0.041 | [5] 0.08
